Test results: article PMC10454406
No constants are given. Whether binding was seen depends on the method and setting. Binding seen in cells or lysates may run through a third protein. Sequences can lack the tags named with a protein.

The chains behind the UniProt entries cited, without tags or fusion partners. Where a name states a change or a piece, a line headed by the entry shows the natural chain unless it says otherwise.
UniProt O00560, whole entry: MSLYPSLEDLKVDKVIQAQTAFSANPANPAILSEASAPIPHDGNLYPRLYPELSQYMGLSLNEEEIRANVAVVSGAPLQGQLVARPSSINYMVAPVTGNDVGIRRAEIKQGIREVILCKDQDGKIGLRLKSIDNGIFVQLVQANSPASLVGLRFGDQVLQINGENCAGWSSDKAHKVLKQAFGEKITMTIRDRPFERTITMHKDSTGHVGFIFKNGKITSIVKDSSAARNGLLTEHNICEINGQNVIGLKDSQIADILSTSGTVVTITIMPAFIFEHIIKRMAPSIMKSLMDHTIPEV

Biological target: GFP-SARS-CoV-2 E protein lacking the PBM (stop mutant) (SARS-CoV-2) (UniProt P0DTC4)
Assay: co-IP

HA-syntenin (from UniProt O00560 1-298)
binding: no binding

B1: Myc-ZO-2 (protein, UniProt Q9UDY2 1-1190)
chain: MPVRGDRGFPPRRELSGWLRAPGMEELIWEQYTVTLQKDSKRGFGIAVSGGRDNPHFENGETSIVISDVLPGGPADGLLQENDRVVMVNGTPMEDVLHSFAVQQLRKSGKVAAIVVKRPRKVQVAALQASPPLDQDDRAFEVMDEFDGRSFRSGYSERSRLNSHGGRSRSWEDSPERGRPHERARSRERDLSRDRSRGRSLERGLDQDHARTRDRSRGRSLERGLDHDFGPSRDRDRDRSRGRSIDQDYERAYHRAYDPDYERAYSPEYRRGARHDARSRGPRSRSREHPHSRSPSPEPRGRPGPIGVLLMKSRANEEYGLRLGSQIFVKEMTRTGLATKDGNLHEGDIILKINGTVTENMSLTDARKLIEKSRGKLQLVVLRDSQQTLINIPSLNDSDSEIEDISEIESNRSFSPEERRHQYSDYDYHSSSEKLKERPSSREDTPSRLSRMGATPTPFKSTGDIAGTVVPETNKEPRYQEDPPAPQPKAAPRTFLRPSPEDEAIYGPNTKMVRFKKGDSVGLRLAGGNDVGIFVAGIQEGTSAEQEGLQEGDQILKVNTQDFRGLVREDAVLYLLEIPKGEMVTILAQSRADVYRDILACGRGDSFFIRSHFECEKETPQSLAFTRGEVFRVVDTLYDGKLGNWLAVRIGNELEKGLIPNKSRAEQMASVQNAQRDNAGDRADFWRMRGQRSGVKKNLRKSREDLTAVVSVSTKFPAYERVLLREAGFKRPVVLFGPIADIAMEKLANELPDWFQTAKTEPKDAGSEKSTGVVRLNTVRQIIEQDKHALLDVTPKAVDLLNYTQWFPIVIFFNPDSRQGVKTMRQRLNPTSNKSSRKLFDQANKLKKTCAHLFTATINLNSANDSWFGSLKDTIQHQQGEAVWVSEGKMEGMDDDPEDRMSYLTAMGADYLSCDSRLISDFEDTDGEGGAYTDNELDEPAEEPLVSSITRSSEPVQHEESIRKPSPEPRAQMRRAASSDQLRDNSPPPAFKPEPPKAKTQNKEESYDFSKSYEYKSNPSAVAGNETPGASTKGYPPPVAAKPTFGRSILKPSTPIPPQEGEEVGESSEEQDNAPKSVLGKVKIFEKMDHKARLQRMQELQEAQNARIEIAQKHPDIYAVPIKTHKPDPGTPQHTSSRPPEPQKAPSRPYQDTRGSYGSDAEEEEYRQQLSEHSKRGYYGQSARYRDTEL
binding: no binding
